In PubChem BioAssay AID540303 (National Center for Advancing Translational Sciences (NCATS), 2011):
The whole screen tested about 330,000 compounds, of which about 1,000 (0.3%) were called active. The shares of active, inactive and inconclusive entries below differ from those in the screen. Calls follow the shape of the dose curve; as a rule, active = well fitted inhibition curve with a large enough effect; inconclusive = small, poorly fitted or top-dose-only effect; inactive = no such curve, though single readings can be large or run the other way; tested in mouse RAW 264.7 cells. Potencies beside an inconclusive call are fits to weak or partial responses and may not hold up.
Potency is read from the fitted curve at half-maximal effect.

Assay: qHTS for Inhibitors of Cell Surface uPA Generation; also: nearly all actives have a fitted effect of over 55% in size
Conditions: cell surface uPA generation assay; series mostly up to 38.3 µM
In short: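 Intracellular ATP by ATPlite luminescence serves as read-out: inhibited cell-surface uPA generation prevents LF translocation, preserving ATP. Murine RAW 264.7 macrophages were treated 24 h at 37 C with five-fold serial dilutions, up to 38.3 uM final.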
With `CSc1ccc(Cl)c(C(=O)Nc2ccc(C)cn2)c1` the Potency was “inactive”. For `Cc1ccc2nsnc2c1NC(=O)CCl`, the Potency was inconclusive: 7.94 µM [inhibitor, single point]. In the case of `COc1ccc(CNC(=O)C2CCN(S(=O)(=O)c3cccc4nsnc34)CC2)cc1`, the Potency is reported as “inactive”. In the case of `COc1ccc(/C(C)=N/NC(=O)CNC(=O)c2cccs2)cc1OC`, the Potency is reported as inconclusive: 10 µM [inhibitor, partial curve, poor fit]. For `C=CCOc1ccc(/C=N\NC(N)=S)cc1`, the Potency was inconclusive: 6.31 µM [inhibitor, partial curve, poor fit]. With `CSc1ccc(/C=C/C(=O)NC(=O)c2ccccc2O)cc1` the Potency was active: 11.2 µM. In the case of `Cc1ccc(S(=O)(=O)N2CCN(c3ncnc4sccc34)CC2)cc1`, the Potency is reported as inconclusive: 3.55 µM [inhibitor, partial curve, poor fit]. With `CCc1ccc(Nc2nnc(SCC(=O)Nc3ccc(C(=O)O)cc3)s2)cc1` the Potency was inconclusive: 7.08 µM [inhibitor, partial curve, poor fit]. With `C=CCn1c(=N)n(CC(=O)c2ccc(Br)s2)c2ccccc21` the Potency was inconclusive: 3.16 µM [inhibitor, full curve, poor fit]. In the case of `CCC(=O)OC1CC(C)N(C(=O)c2ccccc2)c2ccc(C)cc21` (centres undefined), the Potency is reported as “inactive”. For `C[C@@]12C(=O)N(CCO)CC(=O)N1[C@H](/C=C/c1ccccc1)[C@@H]1C(=O)N(c3ccccc3)C(=O)[C@@H]12`, the Potency was “inactive”. With `CC1(c2nnc(Cc3ccccc3)o2)CC(c2c(Cl)cccc2Cl)=NO1` (centres undefined) the Potency was “inactive”. With `COc1ccc(-c2nc3ccccn3c2NC2CCCCC2)cc1SC1CCCCC1` the Potency was inconclusive: 12.6 µM [inhibitor, single point]. For `Cn1c(=O)[nH]c(=O)c2c1nc(SCC(O)CCl)n2Cc1ccccc1` (centres undefined), the Potency was inconclusive: 0.891 µM [inhibitor, full curve, poor fit]. In the case of `COc1ccc(C2c3[nH]c4ccccc4c3C[C@H]3C(=O)N(C4CCN(Cc5ccccc5)CC4)CC(=O)N23)cc1OC` (some centres undefined), the Potency is reported as inconclusive: 12.6 µM [inhibitor, single point]. With `CCN(CC)c1ccc(/C=N/N2CC(=O)NC2=S)cc1` the Potency was inconclusive: 8.91 µM [inhibitor, partial curve, poor fit]. In the case of `Cc1nnsc1-c1onc(C)c1C(=O)Nc1cc(Cl)cc(Cl)c1`, the Potency is reported as inconclusive: 7.94 µM [inhibitor, single point]. In the case of `Cc1ccc(C2=NN3C(=O)c4ccccc4C3C2)cc1` (centres undefined), the Potency is reported as inconclusive: 10 µM [inhibitor, partial curve, poor fit]. With `O=c1cc(N2CCN(c3ccc(F)cc3)CC2)[nH]c(=O)n1Cc1ccc(F)cc1` the Potency was inconclusive: 12.6 µM [inhibitor, single point]. With `O=C(COC(=O)CCNS(=O)(=O)c1ccccc1F)Nc1nnc(-c2ccccc2)o1` the Potency was “inactive”. In the case of `O=C1C2ON(c3ccccc3)C(c3ccccc3F)C2C(=O)N1c1ccccc1` (centres undefined), the Potency is reported as “inactive”. With `COc1cccc2oc3cc(C#CC4(O)CCCCC4)ccc3c(=O)c12` the Potency was active: 7.08 µM. For `Clc1ccc(-c2nnn(Cc3nc4ccccc4s3)n2)cc1`, the Potency was “inactive”. For `Cc1nc(NC(=O)c2ccccc2)sc1C`, the Potency was inconclusive: 10 µM [inhibitor, partial curve, poor fit]. With `N#Cc1c(Nc2ccccc2)sc(C(=O)c2ccc(F)cc2)c1N` the Potency was inconclusive: 12.6 µM [inhibitor, partial curve]. For `Cc1cc(C(=O)N/N=C/c2c(C)nn(-c3ccccc3)c2C)n[nH]1`, the Potency was “inactive”. For `O=C(Cn1c(=O)n(CCC(=O)N2CCCCC2)c(=O)c2sccc21)NCc1ccccc1`, the Potency was “inactive”. In the case of `CCN1C(=O)[C@H]2[C@@H](c3ccc(-c4ccc(C(C)=O)cc4)cc3)N3CCCC[C@@]3(C(=O)OC)[C@H]2C1=O`, the Potency is reported as “inactive”. With `Cn1c(CNc2ccccc2O)nc2ccccc21` the Potency was inconclusive: 5.01 µM [inhibitor, partial curve, poor fit]. In the case of `COc1ccc(N2CCN(C(=O)c3ccc(Cn4nc(C)c([N+](=O)[O-])c4C)o3)CC2)cc1`, the Potency is reported as inconclusive: 1 µM [inhibitor, partial curve, poor fit]. In the case of `Cc1ccc(NCC(=O)NNC2=NCCC2)c(C)c1`, the Potency is reported as “inactive”. For `O=C(COC(=O)c1ccccc1C(=O)c1ccc(Cl)cc1)NCc1ccccc1`, the Potency was inconclusive: 10 µM [inhibitor, single point]. With `CCOC(=O)Cc1csc(NC(=O)COC(=O)/C=C/c2ccc(OC)cc2)n1` the Potency was inconclusive: 12.6 µM [inhibitor, single point]. In the case of `CCn1c(CSc2nccn2C)nc2cc(C(=O)O)ccc21`, the Potency is reported as “inactive”. In the case of `O=C1OC(c2ccc(F)cc2)=C/C1=C\c1ccc(O)cc1`, the Potency is reported as inconclusive: 31.6 µM [inhibitor, partial curve, poor fit]. With `C/C(=N\Nc1cc(N2CCCCC2)nc(C)n1)c1ccc(Br)cc1` the Potency was inconclusive: 10 µM [inhibitor, single point]. For `Cc1ccc(Cl)cc1N1CCN(C(=O)Cc2csc(Nc3nc(=S)[nH]c4ccccc34)n2)CC1`, the Potency was “inactive”. For `Cc1c(C(=O)OCC(=O)N(CC(C)C)c2c(N)n(Cc3ccccc3)c(=O)[nH]c2=O)oc2ccccc12`, the Potency was inconclusive: 2.51 µM [inhibitor, partial curve, poor fit]. In the case of `COc1ccc(CN([C@H](CO)CC(C)C)S(=O)(=O)N(Cc2ccccc2)[C@H](CO)CC(C)C)cc1`, the Potency is reported as inconclusive: 11.2 µM [inhibitor, partial curve, poor fit]. In the case of `O=C(c1ccccc1F)n1c2c(c3ccccc31)CCCC2`, the Potency is reported as inconclusive: 8.91 µM [inhibitor, single point]. For `C/C(=N/NC(=O)CNC(=O)C1COc2ccccc2O1)c1ccc2c(c1)OCCO2` (centres undefined), the Potency was “inactive”. For `CCCCCc1cc(=O)oc2c(C(CCN3CCCC3)c3ccc(N(C)C)cc3)c(OC)cc(OC)c12` (centres undefined), the Potency was inconclusive: 12.6 µM [inhibitor, single point]. With `O=C(/C=C/c1ccc(Cl)cc1)c1ccc([N+](=O)[O-])o1` the Potency was inconclusive: 2.82 µM [inhibitor, full curve]. For `Cc1nc([N+](=O)[O-])c(Br)n1CC(=O)c1ccc(Br)cc1`, the Potency was “inactive”. With `COc1ccc(C(=O)NCC(=O)c2ccccc2)cc1` the Potency was inconclusive: 10 µM [inhibitor, single point]. For `CCOC(=O)C1=C(CSc2nc(CC)c(C)cc2C#N)OC(N)=C(C#N)C1c1ccccc1` (centres undefined), the Potency was “inactive”. With `COc1cnc(-c2ccccn2)nc1Sc1ccc(F)cc1` the Potency was “inactive”. For `CCOc1ccc(NC(=O)CN(C)C(=O)c2cc(-c3ccc(OC)cc3)nc3ccccc23)cc1OCC`, the Potency was “inactive”. For `O=C(COC(=O)c1ccc(O)cc1O)Nc1cccc2ccccc12`, the Potency was inconclusive: 14.1 µM [inhibitor, single point]. In the case of `Oc1c(CN2CCCC2)cc(COCc2ccccc2)c2cccnc12`, the Potency is reported as active: 4.47 µM. With `CCc1ccc(N=Nc2ccc(O)c3[nH]cnc23)cc1` the Potency was inconclusive: 7.94 µM [inhibitor, partial curve, poor fit]. With `CC(=O)NCc1ccc(S(=O)(=O)N2CCCN(C)CC2)cc1` the Potency was “inactive”. With `Cc1nc2ccccc2n1/N=C/c1ccc([N+](=O)[O-])o1` the Potency was inconclusive: 2.51 µM [inhibitor, partial curve]. For `CCn1c2ccccc2c2cc(Nc3cc(C)nc4ncnn34)ccc21`, the Potency was inconclusive: 0.501 µM [inhibitor, full curve, poor fit]. In the case of `O=C(Nc1nc(-c2ccccn2)cs1)c1cccc(-n2cnnn2)c1`, the Potency is reported as inconclusive: 4.47 µM [inhibitor, partial curve]. For `CC(C)CC(NC(=O)c1ccc(Cl)cc1)C(=O)OCC(=O)c1ccc2c(c1)NC(=O)CO2` (centres undefined), the Potency was “inactive”. For `CCC(C)Sc1cccc(-c2nc3ccc(C)cn3c2NCc2ccccc2)c1` (centres undefined), the Potency was inconclusive: 10 µM [inhibitor, partial curve, poor fit]. With `COc1ccccc1/C=C/C=N/NC(=O)Cc1cccs1` the Potency was “inactive”. For `CCc1sc(C(=O)N2CCc3ccccc32)cc1C`, the Potency was inconclusive: 10 µM [inhibitor, partial curve, poor fit]. In the case of `CC1CCc2nc(NC(=O)c3cc(C(C)(C)C)nn3C)sc2C1` (centres undefined), the Potency is reported as inconclusive: 1.26 µM [inhibitor, single point]. For `CCOC(=O)c1cc2c(=O)n3ccccc3nc2n(C(C)C)c1=NC(=O)c1ccco1`, the Potency was inconclusive: 4.47 µM [inhibitor, partial curve, poor fit]. For `Cc1cc(C)cc(NC(=O)c2ccc(S(=O)(=O)C(F)F)cc2)c1`, the Potency was “inactive”. With `O=S(=O)(Nc1cccc(-n2cnnn2)c1)c1cnc(Cl)c(Cl)c1` the Potency was inconclusive: 12.6 µM [inhibitor, single point]. With `Fc1ccc(C2CC(c3ccco3)=NN2c2ccccc2)cc1` (centres undefined) the Potency was “inactive”. In the case of `C=CCn1c(-c2cccc(S(=O)(=O)N(CC)CC)c2)n[nH]c1=S`, the Potency is reported as “inactive”. With `COCCN(CCOC)c1nc(-c2ccccc2)nc2ccccc12` the Potency was inconclusive: 3.16 µM [inhibitor, partial curve, poor fit]. In the case of `COc1cc(OC)c2c(-c3cccc(-c4ccc(C(C)=O)cc4)c3)cc(=O)oc2c1`, the Potency is reported as inconclusive: 2 µM [inhibitor, full curve, poor fit]. For `COc1ccc(C(=O)NC2CCCc3c2cnn3-c2cccc(C)c2C)o1` (centres undefined), the Potency was inconclusive: 12.6 µM [inhibitor, single point]. In the case of `COc1ccc(S(=O)(=O)N2CCCC(C(=O)NCCCn3ccnc3)C2)cc1OC` (centres undefined), the Potency is reported as inconclusive: 3.16 µM [inhibitor, partial curve, poor fit].
